Publication PMC10810270, “Molecular mechanism of specific DNA sequence recognition by NRF1” (Nucleic Acids Research, 2023)
Positions count from the first letter of the chain named. For some assays here: Weaker means in comparison with the reference protein, sequence or condition of that experiment. Tags and fusion partners may be left off the protein sequences shown. For some assays here: For at least one entry, the source does not settle the construct or the ends of the probe. For some assays here: At least one verdict was read from the data and is not stated in words by the source.

How the values were obtained:
Test in all cases: ITC
NRF1 DBD N242A (human) = biological target: T1, NRF1 DBD N242A (human) (UniProt Q16656); conditions: significant reduction or complete loss, ND labels not assignable per mutant; ITC: 20 mM Hepes pH 7.0, 150 mM NaCl, 25 C; protein 20-30 uM, dsDNA 500-600 uM; recombinant protein; residues 177-284; protein details: N-terminal His6 removed by TEV
T1 sequence (looked up): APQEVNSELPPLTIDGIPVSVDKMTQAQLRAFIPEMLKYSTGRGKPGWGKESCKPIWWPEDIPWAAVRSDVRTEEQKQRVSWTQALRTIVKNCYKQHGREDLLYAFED

NRF1 DBD (human) = biological target: T2, NRF1 DBD (human) (UniProt Q16656); conditions: mean of repeats 0.88, 0.96, 0.86, assigned from figure text; ITC: 20 mM Hepes pH 7.0, 150 mM NaCl, 25 C; protein 20-30 uM, dsDNA 500-600 uM; recombinant …; residues 177-284; protein details: N-terminal His6 removed by TEV (pET28-MHL)
T2 sequence (looked up): T1 sequence (looked up) with A66N

NRF1 DBD R206A (human) = biological target: T3, NRF1 DBD R206A (human) (UniProt Q16656); conditions: significant reduction or complete loss, ND labels not assignable per mutant; ITC: 20 mM Hepes pH 7.0, 150 mM NaCl, 25 C; protein 20-30 uM, dsDNA 500-600 uM; recombinant protein; residues 177-284; protein details: N-terminal His6 removed by TEV
T3 sequence (looked up): T1 sequence (looked up) with R30A, A66N

NRF1 DBD K221A (human) = biological target: T4, NRF1 DBD K221A (human) (UniProt Q16656); conditions: significant reduction or complete loss, ND labels not assignable per mutant; ITC: 20 mM Hepes pH 7.0, 150 mM NaCl, 25 C; protein 20-30 uM, dsDNA 500-600 uM; recombinant protein; residues 177-284; protein details: N-terminal His6 removed by TEV
T4 sequence (looked up): T1 sequence (looked up) with K45A, A66N

NRF1 DBD R244A (human) = biological target: T5, NRF1 DBD R244A (human) (UniProt Q16656); conditions: significant reduction or complete loss, ND labels not assignable per mutant; ITC: 20 mM Hepes pH 7.0, 150 mM NaCl, 25 C; protein 20-30 uM, dsDNA 500-600 uM; recombinant protein; residues 177-284; protein details: N-terminal His6 removed by TEV
T5 sequence (looked up): T1 sequence (looked up) with A66N, R68A

NRF1 DD-DBD (human) = biological target: T6, NRF1 DD-DBD (human) (UniProt Q16656); conditions: ITC: 20 mM Hepes pH 7.0, 150 mM NaCl, 25 C; protein 20-30 uM, dsDNA 500-600 uM; recombinant protein; residues 54-284; protein details: N-terminal His6 removed by TEV (pET28-MHL)
T6 sequence (looked up): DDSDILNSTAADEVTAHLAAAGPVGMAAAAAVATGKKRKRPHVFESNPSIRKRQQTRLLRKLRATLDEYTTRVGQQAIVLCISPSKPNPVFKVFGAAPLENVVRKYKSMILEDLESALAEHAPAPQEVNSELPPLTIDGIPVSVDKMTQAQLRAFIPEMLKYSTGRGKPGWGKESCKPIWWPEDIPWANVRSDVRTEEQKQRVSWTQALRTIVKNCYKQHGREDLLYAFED

GGTGCGCATGCGCACC (double strand) [16 bp DNA]
binding result (NRF1 DBD N242A (human)): binds more weakly | Kd (NRF1 DBD (human)): 900 nM | binding result (NRF1 DBD R206A (human)): binds more weakly | binding result (NRF1 DBD K221A (human)): binds more weakly | binding result (NRF1 DBD R244A (human)): binds more weakly

ATGCGAATTCGCAT (double strand) [GCGa/tCGC]
binding result (NRF1 DD-DBD (human)): binds more weakly

ATTCGCATGCGAAT (double strand) [tCGC/GCGa]
binding result (NRF1 DD-DBD (human)): binds more weakly

ATGTGCATGCACAT (double strand) [GtGC/GCaC]
binding result (NRF1 DD-DBD (human)): binds more weakly

ATACGCATGCGTAT (double strand) [aCGC/GCGt]
binding result (NRF1 DD-DBD (human)): binds more weakly

ATGAGCATGCTCAT (double strand) [GaGC/GCtC]
binding result (NRF1 DD-DBD (human)): binds more weakly

ATGCTCATGAGCAT (double strand) [GCtC/GaGC]
binding result (NRF1 DD-DBD (human)): binds more weakly
